Taken from: PubChem BioAssay AID686938 (Drosophila RNAi Screening Center, 2013)
Purpose: 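Looking for CRAC channel components and the factors controlling them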 (primary screen). Cells: Drosophila S2R+ cells. Reagents: long dsRNA against Drosophila genes, about 0.25 µg dsRNA per well, roughly 10,000 cells. Duration: 5 days of knock-down before the calcium assay. Challenge: thapsigargin (SERCA pump blocker) to empty calcium stores; entry signal taken 4 min after adding it. Measurement: 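Duplicate raw fluo-4 intensities per well from a plate reader, at rest and four minutes after thapsigargin emptied calcium stores; entry-to-rest ratio filled for only some wells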. Scale: calcium entry signal: higher = stronger calcium signal after store depletion; resting calcium signal: higher = higher resting calcium signal. Rule for the call: 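Hit if the duplicate-averaged plate z-score for entry over resting signal is under −3; wells with weak total dye signal (Fmax z < −2) or more than 5 off-targets removed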. Calls: active = strongly reduced calcium entry; inactive = no strong reduction.
In all, the deposit lists about 23,000 reagents; this is an unselected part of those with a known target gene and a result. In the full data, 75 (0.33%) were called active. 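Raw plate signals without normalisation; calls rest on plate z-scores that were not deposited; ratio present for only 364 wells.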 Entries without a mark were called inactive. Not given: the dose of the treatment.

| Gene | amplicon | calcium entry signal, replicate 1 (fluorescence units) | calcium entry signal, replicate 2 (fluorescence units) | resting calcium signal, replicate 1 (fluorescence units) | resting calcium signal, replicate 2 (fluorescence units) |
| --- | --- | --- | --- | --- | --- |
| ben | DRSC20310 | 2.79e7 | 2.87e7 | 1.34e7 | 1.32e7 |
| ben | DRSC21261 | 4.19e7 | 5.00e7 | 2.38e7 | 2.25e7 |
| CG32163 | DRSC09442 | 5.59e7 | 4.30e7 | 2.54e7 | 2.03e7 |
| CG32163 | DRSC21888 | 2.66e7 | 2.91e7 | 1.25e7 | 1.46e7 |
| CG12316 | DRSC09879 | 3.52e7 | 4.33e7 | 1.60e7 | 2.90e7 |
| GstD11 | DRSC15251 | 3.42e7 | 4.13e7 | 1.66e7 | 2.19e7 |
| CG7369 | DRSC11822 | 2.79e7 | 6.23e7 | 1.39e7 | 2.99e7 |
| Cyt-c1L | DRSC14860 | 2.71e7 | 3.15e7 | 1.40e7 | 1.51e7 |
| Cyt-c1L | DRSC22096 | 3.49e7 | 5.17e7 | 1.77e7 | 2.92e7 |
| CG34002 | DRSC09512 | 3.10e7 | 4.38e7 | 1.43e7 | 2.00e7 |
| Gr33a | DRSC02589 | 4.17e7 | 2.45e7 | 1.90e7 | 1.20e7 |
| Cyp309a2 | DRSC00526 | 3.99e7 | 3.87e7 | 1.72e7 | 1.56e7 |
| wat | DRSC14854 | 3.56e7 | 5.94e7 | 1.96e7 | 2.40e7 |
| CG9150 | DRSC03148 | 3.71e7 | 3.34e7 | 1.81e7 | 1.61e7 |
| Kdm4A | DRSC06586 | 3.25e7 | 2.64e7 | 1.43e7 | 1.22e7 |
| CG11257 | DRSC06068 | 4.65e7 | 5.36e7 | 2.04e7 | 2.57e7 |
| pnt | DRSC17028 | 3.29e7 | 4.07e7 | 2.27e7 | 2.29e7 |
| pnt | DRSC23204 | 2.97e7 | 3.76e7 | 1.76e7 | 2.24e7 |
| lncRNA:CR43632 | DRSC13730 | 3.22e7 | 3.88e7 | 1.53e7 | 1.78e7 |
| beat-Ib | DRSC03490 | 4.77e7 | 3.98e7 | 2.06e7 | 1.71e7 |
| sqz | DRSC16980 | 3.89e7 | 3.74e7 | 4.58e7 | 1.74e7 |
| mTTF | DRSC01909 | 5.03e7 | 3.73e7 | 2.21e7 | 1.80e7 |
| CG33203 | DRSC14874 | 4.13e7 | 6.76e7 | 2.09e7 | 3.04e7 |
| CG33203 | DRSC14876 | 3.82e7 | 6.13e7 | 2.02e7 | 2.56e7 |
| CG33203 | DRSC14877 | 4.02e7 | 3.55e7 | 2.06e7 | 1.77e7 |

4 entries from above, reformatted.
Gene | amplicon | calcium entry signal, replicate 1 (fluorescence units) | calcium entry signal, replicate 2 (fluorescence units) | resting calcium signal, replicate 1 (fluorescence units) | resting calcium signal, replicate 2 (fluorescence units)
Cyp309a2 | DRSC00526 | 3.99e7 | 3.87e7 | 1.72e7 | 1.56e7
wat | DRSC14854 | 3.56e7 | 5.94e7 | 1.96e7 | 2.40e7
CG9150 | DRSC03148 | 3.71e7 | 3.34e7 | 1.81e7 | 1.61e7
Kdm4A | DRSC06586 | 3.25e7 | 2.64e7 | 1.43e7 | 1.22e7
